{
  "source": "paper PMC8834516",
  "note": "These are yes or no findings as the source states them, for the method shown. In cells and extracts the contact can be indirect. A yes stands for co-enrichment or nearness to the bait. Other partners may have been found.",
  "data": [
    {"molecular_target": "T1, Transglutaminase-2 (mouse (endogenous in mouse brain)) (UniProt P21981)", "T1 sequence": "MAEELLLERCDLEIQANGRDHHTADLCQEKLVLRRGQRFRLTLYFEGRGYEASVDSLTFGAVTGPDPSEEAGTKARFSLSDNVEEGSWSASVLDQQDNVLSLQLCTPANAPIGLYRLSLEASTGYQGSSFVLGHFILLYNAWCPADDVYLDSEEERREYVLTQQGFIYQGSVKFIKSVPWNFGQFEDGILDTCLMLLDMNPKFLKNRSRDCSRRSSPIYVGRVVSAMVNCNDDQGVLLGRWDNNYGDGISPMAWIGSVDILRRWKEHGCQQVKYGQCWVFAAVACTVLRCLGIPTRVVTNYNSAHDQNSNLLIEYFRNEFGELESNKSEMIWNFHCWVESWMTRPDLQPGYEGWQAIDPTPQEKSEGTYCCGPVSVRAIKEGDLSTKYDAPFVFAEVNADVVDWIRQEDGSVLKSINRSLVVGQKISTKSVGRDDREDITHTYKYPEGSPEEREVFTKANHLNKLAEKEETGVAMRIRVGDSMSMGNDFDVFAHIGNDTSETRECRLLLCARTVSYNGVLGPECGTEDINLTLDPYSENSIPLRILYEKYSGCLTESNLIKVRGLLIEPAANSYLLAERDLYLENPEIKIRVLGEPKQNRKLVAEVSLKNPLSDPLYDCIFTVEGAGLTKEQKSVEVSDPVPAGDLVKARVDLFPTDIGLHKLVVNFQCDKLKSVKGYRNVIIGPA", "test": "affinity purification with mass spectrometry; TG2 immunoprecipitated from total brain homogenates of 18-month-old WT and APP23 mice with anti-TG2 antibody IA12 crosslinked to protein A/G magnetic beads, 22 h at 4 °C; IP lysis buffer 25 mM Tris pH 7.4, 150 mM NaCl, 1 mM EDTA, 1% NP40, 5% glycerol; on-bead trypsin digest, SWATH MS; TG2−/− cohorts as background, z-test p ≤ 0.05, n = 5 per cohort", "values": [
      {"binder": "Astrotactin-1 (protein, UniProt Q61137 22-1302) TAAGDVDPSKELECKLKSITVSALPFLRENDLSIMHSPSASEPKLLFSVRNDFPGEMVVVDDLENTELPYFVLEISGNTEDIPLVRWRQQWLENGTLLFHIHHQDGAPSLPGQDPTEEPQHESAEEELRILHISVMGGMIALLLSILCLVMILYTRRRWCKRRRVPQPQKSASAEAANEIHYIPSVLIGGHGRESLRNARVQGHNSSGTLSIRETPILDGYEYDITDLRHHLQRECMNGGEDFASQVTRTLDSLQGCNEKSGMDLTPGSDNAKLSLMNKYKDNIIATSPVDSNHQQATLLSHTSSSQRKRINNKARAGSAFLNPEGDSSTEAENDPQLTFYTDPSRSRRRSRVGSPRSPVNKTTLTLISVTSCVIGLVCSSHVSCPLVVKITLHVPEHLIADGSRFILLEGSQLDASDWLNPAQVVLFSQQNSSGPWAMDLCARRLLDPCEHQCDPETGRREHRAAGECLCYEGYMKDPVHKHLCIRNEWGTNQGPWPYTIFQRGFDLVLGEQPSDKIFRFTYTLGEGMWLPLSKSFVIPPAELAINPSAKCKTDMTVMEDAVEVREELMTSSSFDSLEVLLDSFGPVRDCSKDNGGCSKNFRCISDRKLDSTGCVCPSGLSPMKDSSGCYDRHIGVDCSDGFNGGCEQLCLQQMAPFPEDPTLYNILMFCGCIEDYKLGVDGRSCQLVTETCPEGGDCGESREVPMNQTLFGEMFFGYNNQSKEVATGQVLKGTFRQNNFARGLDQQLPDGLVVASVPLENQCLEEISEPTPDPDFLTGMVNFSEVSGYPVLQHWKVRSVMYHIKLNQAAISQAFSNALHSLDGATSRADFVALLDQFGNHYIQEAVYGFEESCSIWYPNKQVQRRLWLEYEDISKGNSPSDESEERERDPKVLTFPEYIASLSDSGTKRMAAGVRMECQSKGRCPSSCPLCHVTSSPETPAEPVLLEVTRASPIYELVTNNQTQRLLQEATMSSLWCSGTGDVIEDWCRCDSTAFGADGLPTCAPLPQPVLRLSTVHEPSSNLVVLEWEHSEPPIGVQIVDYLIRQEKVTDRMDHSKVETETVLSFVDDIISGAKAPCAMPSQVPDKQLTTISLIIRCLEPDTIYMFTLWGVDNTGRRSRPSDVIVKTPCPVVDDVKAQEIADKIYNLFNGYTSGKEQQTAYNTLLDLGSPTLHRVLYHYNQHYESFGEFTWRCEDELGPRKAGLILSQLGDLSSWCNGLLQEPKISLRRGSLKYLGCRYSEIKPYGLDWSELSRDLRKTCEEQTLSVPYNDYGDSKDI", "binding": "binds"},
      {"binder": "Long-chain-fatty-acid—CoA ligase ACSBG1 (protein, UniProt Q99PU5 1-721) MPRGSEAGYCCLSRDSNMPDSRDDQQQGASLGTSQDNSQTSSLIDGQTLSKESPSHGLELSAPEKARAASLDGAEEALWTTRADGRVRLRLEPFCTQRPYTVHQMFYEALDKYGNLSALGFKRKDKWERISYYQYYLIARKVAKGFLKLGLERAHSVAILGFNSPEWFFSAVGTVFAGGIVTGIYTTSSPEACQYISHDCRANVIVVDTQKQLEKILKIWKDLPHLKAVVIYQEPPPKKMANVYTMEELIELGQEVPEEALDAIIDTQQPNQCCVLVYTSGTTGNPKGVMLSQDNITWTARYGSQAGDIQPAEVQQEVVVSYLPLSHIAAQIYDLWTGIQWGAQVCFADPDALKGTLVNTLREVEPTSHMGVPRVWEKIMERIQEVAAQSGFIRRKMLLWAMSVTLEQNLTCPSNDLKPFTSRLADYLVLARVRQALGFAKCQKNFYGAAPMTAETQRFFLGLNIRLYAGYGLSESTGPHFMSSPYNYRLYSSGRVVPGCRVKLVNQDADGIGEICLWGRTIFMGYLNMEDKTCEAIDSEGWLHTGDMGRLDADGFLYITGRLKELIITAGGENVPPVPIEEAVKMELPIISSAMLIGDQRKFLSMLLTLKCTLDPETSEPTDSLTEQAVEFCQRVGSKASTVSEIVGQRDEAVYQAIHEGIQRVNANAAARPYHIQKWAILQRDFSISGGELGPTMKLKRLTVLEKYKDIIDSFYQEQKQ", "binding": "binds"},
      {"binder": "Insulin-degrading enzyme (protein, UniProt Q9JHR7 1-1019) MRNGLVWLLHPALPGTLRSILGARPPPAKRLCGFPKQTYSTMSNPAIQRIEDQIVKSPEDKREYRGLELANGIKVLLISDPTTDKSSAALDVHIGSLSDPPNIPGLSHFCEHMLFLGTKKYPKENEYSQFLSEHAGSSNAFTSGEHTNYYFDVSHEHLEGALDRFAQFFLCPLLDASCKDREVNAVDSEHEKNVMNDAWRLFQLEKATGNPKHPFSKFGTGNKYTLETRPNQEGIDVREELLKFHSTYYSSNLMAICVLGRESLDDLTNLVVKLFSEVENKNVPLPEFPEHPFQEEHLRQLYKIVPIKDIRNLYVTFPIPDLQQYYKSNPGYYLGHLIGHEGPGSLLSELKSKGWVNTLVGGQKEGARGFMFFIINVDLTEEGLLHVEDIILHMFQYIQKLRAEGPQEWVFQECKDLNAVAFRFKDKERPRGYTSKIAGKLHYYPLNGVLTAEYLLEEFRPDLIDMVLDKLRPENVRVAIVSKSFEGKTDRTEQWYGTQYKQEAIPEDVIQKWQNADLNGKFKLPTKNEFIPTNFEILSLEKDATPYPALIKDTAMSKLWFKQDDKFFLPKACLNFEFFSPFAYVDPLHCNMAYLYLELLKDSLNEYAYAAELAGLSYDLQNTIYGMYLSVKRYNDKQPILLKKITEKMATFEIDKKRFEIIKEAYMRSLNNFRAEQPHQHAMYYLRLLMTEVAWTKDELKEALDDVTLPRLKAFIPQLLSRLHIEALLHGNITKQAALGVMQMVEDTLIEHAHTKPLLPSQLVRYREVQLPDRGWFVYQQRNEVHNNCGIEIYYQTDMQSTSENMFLELFCQIISEPCFNTLRTKEQLGYIVFSGPRRANGIQGLRFIIQSEKPPHYLESRVEAFLITMEKAIEDMTEEAFQKHIQALAIRRLDKPKKLSAECAKYWGEIISQQYNYDRDNIEVAYLKTLTKDDIIRFYQEMLAVDAPRRHKVSVHVLAREMDSCPVVGEFPSQNDINLSEAPPLPQPEVIHNMTEFKRGLPLFPLVKPHINFMAAKL", "binding": "binds"},
      {"binder": "Keratin, type II cytoskeletal 1 (protein, UniProt P04104 1-637) MSLQCSSRSLCRGGGGSRNFSSGSAGLVSFQRRSTSSSMRRSGGGGGGRFSGGGFCGSSGSGFGSKSLMNLGGGRSISKSVAGGGGSFCGGFGGGSYGGGGFGGGSYGGGGFGGGSFGGGGFGGSGFGGGLGGGGGFGSGGGFGGGRFGSMGPVCPPGGIQEVTINQSLLQPLNVEVDPQIQKVKSQEREQIKSLNDKFASFIDKVRFLEQQNQVLQTKWELLQQVDTTTRTQNLDPFFENYISILRRKVDSLKSDQSRMDSELKNMQDLVEEYRTKYEDEINKRTNAENEFVTIKKDVDSAYMTKVELQAKADALQQDIDFFSALYQMEMSQMQTQISETNVVLSMDNNRSLDLDGIISEVKAQYDSICQRSKAEAETFYQSKYEELQITAGKHGDSVRNTKMEISELNRMIQRLRSEIDGCKKQISQIQQNINDAEQRGEKALKDAQNKLNEIEDALSQCKEDLARLLRDFQELMNTKLALDMEIATYKKLLEGEEIRMSGECTPNVSVSVSTSHTSMSGSSSRGGGSGGGRYGGGGSYGGGSGGGSYGGSSGGGGSGGSYGGGSGGGSYGGGSGGGSSGSHRGGSGGGGGSSGGSYGGSSGGGRGGSSSGGGGVKSSGSSTVKFVSTSYSRGTK", "binding": "binds"},
      {"binder": "Serpin B6 (protein, UniProt Q60854 1-378) MDPLQEANGTFALNLLKILGEDSSKNVFLSPMSISSALAMVFMGAKGTTASQMAQALALDKCSGNGGGDVHQGFQSLLTEVNKTGTQYLLRTANRLFGDKTCDLLASFKDSCLKFYEAELEELDFQGATEESRQHINTWVAKKTEDKIKEVLSPGTVNSDTSLVLVNAIYFKGNWEKQFNKEHTREMPFKVSKNEEKPVQMMFKKSTFKMTYIGEIFTKILLLPYVSSELNMIIMLPDEHVELSTVEKEVTYEKFIEWTRLDKMDEEEVEVFLPKFKLEENYNMNDALYKLGMTDAFGGRADFSGMSSKQGLFLSKVVHKAFVEVNEEGTEAAAATAGMMTVRCMRFTPRFCADHPFLFFIHHVKTNGILFCGRFSSP", "binding": "binds"},
      {"binder": "Cadherin-12 (protein, UniProt Q5RJH3 55-794) GWVWNQFFVLEEYMGSEPQYVGKLHSDLDKGEGTVKYTLSGDGAGTVFTIDETTGDIHAIRSLDREEKPFYTLRAQAVDIETRKPLEPESEFIIKVQDINDNEPKFLDGPYVASVPEMSPVGAYVLQVKATDADDPTYGNSARVVYSILQGQPYFSIDPKTGVIRTALPNMDREVKEQYQVLIQAKDMGGQLGGLAGTTVVNITLTDVNDNPPRFPKSIFHLKVPESSPVGSAIGRIRAVDPDFGKNAEIEYNIVPGDGGNLFDIVTDEDTQEGIIKLKKPLDFETKKAYTFKVEASNLHLDHRFHSAGPFKDTATVKISVLDVDEPPVFSKPLYTMEVYEDTPVGTIIGAVTAQDLDVGSSAVRYFIDWKSDGESYFTIDGTEGTIATNELLDRENMAQYNFSIIASKVSNPLLTSKVNILINVLDVNEFPPEISVPYETAVCENAKPGQIIQIVGAVDRDLSPAGQQFSFRLAPEAVIKPNFTVHDFRNNTAGIETRRNGYSRRQQELYFLPIVIEDSSYPVQSSTNTMTIRVCRCDSDGTILSCNVEAIFLPVGLSTGALIAILLCMVILLAIVVLYVALRRQRKKDTLMTSKEDIRDNVIHYDDEGGGEEDTQAFDIGALRNPKVIEENKIRRDIKPDSLCLSRQRPQVEDNTDIRDFIHRRLQENDADPAAPPYDSLATYAYEGNGSVAESLSSIDSLTTEADQDYDYLSDWGPRFKVLADMFGEEESYNPDNVT", "binding": "binds"},
      {"binder": "Cystatin-C (protein, UniProt P21460 21-140) ATPKQGPRMLGAPEEADANEEGVRRALDFAVSEYNKGSNDAYHSRAIQVVRARKQLVAGVNYFLDVEMGRTTCTKSQTNLTDCPFHDQPHLMRKALCSFQIYSVPWKGTHSLTKFSCKNA", "binding": "binds"}
    ]}
  ]
}
